We go through two molecules from paper PMC12751231.

The chains behind the UniProt entries cited, without tags or fusion partners.
UniProt Q61879: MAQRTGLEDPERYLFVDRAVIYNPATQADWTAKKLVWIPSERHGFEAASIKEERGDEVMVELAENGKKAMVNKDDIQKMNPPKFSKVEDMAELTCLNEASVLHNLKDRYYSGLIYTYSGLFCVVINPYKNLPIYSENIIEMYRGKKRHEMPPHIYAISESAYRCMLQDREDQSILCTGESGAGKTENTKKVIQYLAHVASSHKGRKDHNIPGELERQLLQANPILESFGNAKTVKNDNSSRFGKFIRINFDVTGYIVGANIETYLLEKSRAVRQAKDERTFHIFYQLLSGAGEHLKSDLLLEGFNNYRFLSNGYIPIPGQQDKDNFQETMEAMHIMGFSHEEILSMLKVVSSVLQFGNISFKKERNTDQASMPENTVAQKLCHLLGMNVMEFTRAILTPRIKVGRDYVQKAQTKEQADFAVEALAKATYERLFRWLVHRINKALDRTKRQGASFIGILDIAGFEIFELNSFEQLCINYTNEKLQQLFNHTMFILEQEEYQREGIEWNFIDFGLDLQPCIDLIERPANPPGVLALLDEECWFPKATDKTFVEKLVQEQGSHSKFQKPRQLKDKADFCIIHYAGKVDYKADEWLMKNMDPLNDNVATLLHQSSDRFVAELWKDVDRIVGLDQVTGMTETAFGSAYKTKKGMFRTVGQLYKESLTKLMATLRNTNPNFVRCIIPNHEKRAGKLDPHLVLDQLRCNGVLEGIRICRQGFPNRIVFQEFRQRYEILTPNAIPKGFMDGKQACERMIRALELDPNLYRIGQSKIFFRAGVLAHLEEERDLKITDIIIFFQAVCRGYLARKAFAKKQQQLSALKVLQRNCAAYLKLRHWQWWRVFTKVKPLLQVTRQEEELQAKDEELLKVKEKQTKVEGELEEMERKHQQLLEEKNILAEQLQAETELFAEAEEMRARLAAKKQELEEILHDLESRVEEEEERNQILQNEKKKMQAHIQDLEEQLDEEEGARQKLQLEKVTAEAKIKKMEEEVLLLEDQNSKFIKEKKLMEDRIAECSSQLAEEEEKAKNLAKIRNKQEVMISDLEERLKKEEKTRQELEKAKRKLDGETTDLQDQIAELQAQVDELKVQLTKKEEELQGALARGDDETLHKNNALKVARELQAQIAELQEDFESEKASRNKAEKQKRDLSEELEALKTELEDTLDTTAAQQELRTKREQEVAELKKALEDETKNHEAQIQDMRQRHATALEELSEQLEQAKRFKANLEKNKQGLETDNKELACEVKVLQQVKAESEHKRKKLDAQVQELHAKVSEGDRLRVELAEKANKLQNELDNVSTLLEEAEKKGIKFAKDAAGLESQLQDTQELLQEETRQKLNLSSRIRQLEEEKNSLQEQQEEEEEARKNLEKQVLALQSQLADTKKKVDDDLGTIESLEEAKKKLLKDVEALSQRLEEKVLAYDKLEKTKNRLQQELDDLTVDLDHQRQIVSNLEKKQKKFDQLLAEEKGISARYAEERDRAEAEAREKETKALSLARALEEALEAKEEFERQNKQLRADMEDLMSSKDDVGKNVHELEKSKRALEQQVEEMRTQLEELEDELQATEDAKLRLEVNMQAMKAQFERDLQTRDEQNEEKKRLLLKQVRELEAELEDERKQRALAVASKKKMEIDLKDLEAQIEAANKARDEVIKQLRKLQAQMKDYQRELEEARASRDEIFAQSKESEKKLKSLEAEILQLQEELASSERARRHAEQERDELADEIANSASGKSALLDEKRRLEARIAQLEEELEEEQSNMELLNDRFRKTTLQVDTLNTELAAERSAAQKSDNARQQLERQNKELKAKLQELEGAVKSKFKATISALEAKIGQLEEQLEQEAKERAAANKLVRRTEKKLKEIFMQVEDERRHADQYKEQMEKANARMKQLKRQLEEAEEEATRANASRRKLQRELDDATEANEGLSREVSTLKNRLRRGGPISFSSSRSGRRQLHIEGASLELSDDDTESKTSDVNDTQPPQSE

Experiment [1] concerns the target T1, CFAP57 (cilia and flagella associated protein 57), mouse (mouse (endogenous in testis)) (UniProt Q9D180).
T1 sequence: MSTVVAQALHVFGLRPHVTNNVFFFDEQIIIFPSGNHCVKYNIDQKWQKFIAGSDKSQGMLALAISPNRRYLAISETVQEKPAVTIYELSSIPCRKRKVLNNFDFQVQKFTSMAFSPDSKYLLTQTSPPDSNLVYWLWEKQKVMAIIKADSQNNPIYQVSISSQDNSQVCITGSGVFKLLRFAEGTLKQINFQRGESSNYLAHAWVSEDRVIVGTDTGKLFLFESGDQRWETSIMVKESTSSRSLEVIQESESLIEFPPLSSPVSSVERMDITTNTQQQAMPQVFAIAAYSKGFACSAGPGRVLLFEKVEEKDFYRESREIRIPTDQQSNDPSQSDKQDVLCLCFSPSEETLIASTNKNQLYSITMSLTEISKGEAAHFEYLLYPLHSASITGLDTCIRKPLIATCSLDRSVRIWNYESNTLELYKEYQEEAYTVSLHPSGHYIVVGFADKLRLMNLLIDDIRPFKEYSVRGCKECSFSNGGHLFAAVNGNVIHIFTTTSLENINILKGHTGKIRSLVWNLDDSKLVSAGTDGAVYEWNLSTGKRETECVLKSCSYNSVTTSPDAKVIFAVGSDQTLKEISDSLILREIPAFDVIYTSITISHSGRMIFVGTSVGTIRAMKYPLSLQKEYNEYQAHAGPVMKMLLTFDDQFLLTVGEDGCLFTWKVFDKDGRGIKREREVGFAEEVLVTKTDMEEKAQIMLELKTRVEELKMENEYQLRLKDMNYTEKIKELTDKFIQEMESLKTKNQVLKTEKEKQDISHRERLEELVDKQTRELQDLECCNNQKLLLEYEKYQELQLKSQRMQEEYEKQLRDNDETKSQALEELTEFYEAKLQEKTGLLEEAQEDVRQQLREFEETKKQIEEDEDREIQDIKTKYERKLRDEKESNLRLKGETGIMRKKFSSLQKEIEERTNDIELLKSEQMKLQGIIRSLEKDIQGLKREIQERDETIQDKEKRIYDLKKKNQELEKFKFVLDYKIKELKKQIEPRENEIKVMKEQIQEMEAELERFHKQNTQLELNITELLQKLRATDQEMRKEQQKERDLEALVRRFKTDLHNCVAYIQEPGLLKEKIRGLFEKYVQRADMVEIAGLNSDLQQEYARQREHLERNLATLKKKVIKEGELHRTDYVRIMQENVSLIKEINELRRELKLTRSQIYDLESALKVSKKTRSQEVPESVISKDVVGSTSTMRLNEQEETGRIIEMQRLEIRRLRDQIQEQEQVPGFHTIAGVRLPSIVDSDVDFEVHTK
Nature of the experiment: co-IP; WT mouse testis lysate; CFAP57, MYH10 or RAB1 antibody or rabbit IgG overnight at 4 °C, protein G agarose beads 4 h, five washes with lysis buffer; Western blotting with MYH10, RAB1 and CFAP57 antibodies.

For experiment [2], the target named is MYH10, a non-muscle myosin II isoform, mouse (mouse (endogenous in testis)) (UniProt Q61879). Described as above.

These are yes or no findings as the source states them, for the method shown. In cells and extracts the contact can be indirect. Some results given as binding are weak or reduced against the parent protein; the word gives no strength. Sequences can lack the tags named with a protein.

Turning to “MYH10, a non-muscle myosin II isoform, mouse (from UniProt Q61879 1-1976)”, the binding entry in experiment [1] is recorded as “binds”.

B1: CFAP57 (cilia and flagella associated protein 57), mouse (protein, UniProt Q9D180 1-1249)
chain: MSTVVAQALHVFGLRPHVTNNVFFFDEQIIIFPSGNHCVKYNIDQKWQKFIAGSDKSQGMLALAISPNRRYLAISETVQEKPAVTIYELSSIPCRKRKVLNNFDFQVQKFTSMAFSPDSKYLLTQTSPPDSNLVYWLWEKQKVMAIIKADSQNNPIYQVSISSQDNSQVCITGSGVFKLLRFAEGTLKQINFQRGESSNYLAHAWVSEDRVIVGTDTGKLFLFESGDQRWETSIMVKESTSSRSLEVIQESESLIEFPPLSSPVSSVERMDITTNTQQQAMPQVFAIAAYSKGFACSAGPGRVLLFEKVEEKDFYRESREIRIPTDQQSNDPSQSDKQDVLCLCFSPSEETLIASTNKNQLYSITMSLTEISKGEAAHFEYLLYPLHSASITGLDTCIRKPLIATCSLDRSVRIWNYESNTLELYKEYQEEAYTVSLHPSGHYIVVGFADKLRLMNLLIDDIRPFKEYSVRGCKECSFSNGGHLFAAVNGNVIHIFTTTSLENINILKGHTGKIRSLVWNLDDSKLVSAGTDGAVYEWNLSTGKRETECVLKSCSYNSVTTSPDAKVIFAVGSDQTLKEISDSLILREIPAFDVIYTSITISHSGRMIFVGTSVGTIRAMKYPLSLQKEYNEYQAHAGPVMKMLLTFDDQFLLTVGEDGCLFTWKVFDKDGRGIKREREVGFAEEVLVTKTDMEEKAQIMLELKTRVEELKMENEYQLRLKDMNYTEKIKELTDKFIQEMESLKTKNQVLKTEKEKQDISHRERLEELVDKQTRELQDLECCNNQKLLLEYEKYQELQLKSQRMQEEYEKQLRDNDETKSQALEELTEFYEAKLQEKTGLLEEAQEDVRQQLREFEETKKQIEEDEDREIQDIKTKYERKLRDEKESNLRLKGETGIMRKKFSSLQKEIEERTNDIELLKSEQMKLQGIIRSLEKDIQGLKREIQERDETIQDKEKRIYDLKKKNQELEKFKFVLDYKIKELKKQIEPRENEIKVMKEQIQEMEAELERFHKQNTQLELNITELLQKLRATDQEMRKEQQKERDLEALVRRFKTDLHNCVAYIQEPGLLKEKIRGLFEKYVQRADMVEIAGLNSDLQQEYARQREHLERNLATLKKKVIKEGELHRTDYVRIMQENVSLIKEINELRRELKLTRSQIYDLESALKVSKKTRSQEVPESVISKDVVGSTSTMRLNEQEETGRIIEMQRLEIRRLRDQIQEQEQVPGFHTIAGVRLPSIVDSDVDFEVHTK
Regarding B1, in experiment [2], the binding result is on record as “binds”.
